# PubChem BioAssay AID651664 (NMMLSC, 2012)
# Fewer than 10 of roughly 1,800 compounds were called active.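 The calls were made as follows: active = inhibition of granule release above a set limit; inactive = the rest.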 Some of the results follow.
# Experiment: LAMP-1 surface externalization blockers in TALL-104 cells – cell-based, flow cytometry, validation set (AID 651664)
# Conditions: TALL-104 LAMP-1 externalization, at 15.2 µM, hits give high values, stimulated with thapsigargin and PMA
row,Structure (SMILES),inhibition
1,O=C(CCSc1ccc(Cl)cc1)c1cccs1,inactive: 0.9%
2,O=C1C2C3C=CC(C3)C2C(=O)N1c1ccc(-c2nc3ccccc3o2)cc1 (centres undefined),inactive: -0.3%
3,O=C1C(c2ccnc3ccccc23)=C(O)c2ccccc21,inactive: -0.3%
4,Cc1ccccc1OCC(=O)OC1CCN(C)CC1,inactive: 0.1%
5,CCOC(=O)c1sc(NC(=O)c2c(OC)cccc2OC)nc1C,inactive: -1.9%
6,O=C(c1cc2cc(Cl)ccc2oc1=O)N1CCCC1,inactive: 23.5%
7,COc1ccc(-c2n[nH]c(C)c2-c2ccc(Cl)cc2)c(O)c1,inactive: 1.8%
8,O=C(N/C=N/OCc1cccc(C(F)(F)F)c1)N1OC[C@@H]2COc3ccc4ccccc4c3[C@@H]21,inactive: -3.7%
9,CCn1c(C)nc2cc(-c3nc4n(n3)Cc3ccccc3-4)ccc21,inactive: -1.2%
10,Cc1noc(C)c1COc1cccc(C(=O)OCCOc2ccc(F)cc2)c1,inactive: 0.1%
11,Cc1ccccc1OC(C)c1nc(-c2ccccc2)no1 (centres undefined),inactive: 6.7%
12,N#CC(c1ccccc1)c1ccc2c(C(F)(F)F)cc(C(F)(F)F)nc2n1 (centres undefined),inactive: 54.5%
13,O=S(=O)(c1ccc(S(=O)(=O)N(Cc2ccco2)Cc2ccccc2Cl)cc1)N1CCCC1,inactive: 1.5%
14,CCN(CC)C(=O)CSc1nc2ccccc2c(=O)[nH]1,inactive: 0.4%
15,COc1ccc(CC(=O)Nc2cc(C)on2)cc1OC,inactive: -0.9%
16,Cc1ccc(Cn2ccc(=O)c(OCc3c(Cl)cccc3Cl)c2C)cc1,inactive: -1.6%
17,COc1cc(-c2ncc3ccccn23)cc(OC)c1OC,inactive: 3.5%
18,c1ccc(Sc2cnc3ccccc3n2)cc1,inactive: 1.7%
19,CCOc1ccc(CCNC(=O)C2CCN(c3nn4c(=O)cc(C)nc4s3)CC2)cc1,inactive: 3.6%
20,C=CCn1cc(-c2cccc(Cl)c2)cc(C#N)c1=O,inactive: 6.4%
21,CCN=C1S/C(=C\c2ccc(Sc3ccc(Cl)cc3)o2)C(=O)N1CC,inactive: 3.7%
22,COc1ccc(-c2cc(C(F)(F)F)n3ncc(C(=O)NCC4CCCO4)c3n2)cc1OC (centres undefined),inactive: 1.8%
23,Cn1c2c(c(=O)n(C)c1=O)[C@@H]1c3c(ccc4ccccc34)OC[C@@H]1CO2,inactive: 3.1%
24,CC(C)(C)NC(=O)C(=O)N/N=C/c1ccc(Br)cc1,inactive: -2.4%
25,Cn1cnnc1Sc1cc(N2CCN(S(=O)(=O)c3ccc(Cl)c(Cl)c3)CC2)ccc1[N+](=O)[O-],inactive: 0.3%

# Reformatted tab-delimited: 2 of the compounds above.
row	Structure (SMILES)	inhibition
19	CCOc1ccc(CCNC(=O)C2CCN(c3nn4c(=O)cc(C)nc4s3)CC2)cc1	inactive: 3.6%
20	C=CCn1cc(-c2cccc(Cl)c2)cc(C#N)c1=O	inactive: 6.4%

# Following part:

row,Structure (SMILES),inhibition
1,O=C(NC1CCCCCC1)c1nc2ncccn2n1,inactive: -2.4%
2,COC(=O)c1ccccc1NC(=S)NC(=O)c1ccccc1,inactive: 1.1%
3,Cc1nc(SCCCSc2n[nH]c(C)n2)n[nH]1,inactive: -1.5%
4,CCOc1ccc(N2C(=O)CC(NCCc3ccc(S(N)(=O)=O)cc3)C2=O)cc1 (centres undefined),inactive: 15.9%
5,Cc1nnc(SCC(=O)c2cc(C)n(C3CC3)c2C)s1,inactive: 1.3%
6,COc1ccc(-c2ccc(-c3noc(-c4ccccc4OC)n3)c(OC)n2)cc1,inactive: -0.5%
7,Cc1ccc(C(=O)N/C(=C/c2ccc(-c3cccc([N+](=O)[O-])c3)o2)C(=O)NC(C)C)cc1,inactive: -2.7%
8,COc1ccc2c(c1OC)C(=O)N(c1cccc(C)c1)C2=O,inactive: 1.1%
9,N#Cc1cccc(NC(=O)CN2NS(=O)(=O)c3ccccc3C2=O)c1,inactive: 1.1%
10,C=CCc1c(C)nc(SCc2nc3ccccc3c(=O)[nH]2)[nH]c1=O,inactive: 2%
11,CC(=O)N1CCN(c2nnnn2-c2ccccc2)CC1,inactive: 1.1%
12,COc1ccc(-c2csc(NC(=O)c3ccco3)n2)cc1,inactive: -2.2%
13,CC1N(O)C(c2ccc(Cl)cc2Cl)N(O)C1(C)C (centres undefined),inactive: 0.8%
14,Cc1cc(C(=O)CSc2nnc(-c3ccco3)o2)c(C)n1CC1COc2ccccc2O1 (centres undefined),inactive: 2.7%
15,CCCCc1ccc(NC(=O)OC)cc1,inactive: -1.9%
16,Cc1nn(-c2ccccc2)c(C)c1C(=O)OCC(=O)NC(=O)NC1CCCC1,inactive: -2.5%
17,CN(CCC#N)C(=O)c1ccc(CNS(=O)(=O)c2ccc(F)cc2)cc1,inactive: -3.4%
18,N#CC(C(=O)NCCc1ccccc1)c1nc2ccccc2nc1N1CCCCC1 (centres undefined),inactive: 2.9%
19,O=C(CCCOc1ccc(Cl)cc1Cl)N1CCCc2ccccc21,inactive: -4.6%
20,CCc1ccc(NC(=O)Nc2cccs2)cc1,inactive: 0%
21,O=C(O)c1ccc(NS(=O)(=O)c2cc(C(=O)O)ccc2Br)cc1,inactive: 0.9%
22,CCOC(=O)C(C)On1c(-c2cccc(Cl)c2)nc2ccc([N+](=O)[O-])cc21 (centres undefined),inactive: 0.8%
23,COc1ccc(NC(=O)CSc2c(C)nn(-c3nnc(C)c(=O)[nH]3)c2C)cc1,inactive: 0.5%
24,Cc1nc(SCc2cccc(Oc3ccccc3)c2)n[nH]1,inactive: -0.4%
25,CCCCCCC(=O)N1CCN(c2cc3c(cc2F)c(=O)c(C(=O)O)cn3CC)CC1,inactive: 11.2%

row,Structure (SMILES),inhibition
1,O=C(CCS(=O)(=O)c1ccc(Cl)cc1)OCC(=O)N1CCCCC1,inactive: 4.4%
2,CN1C(=O)C2(N=c3ccccc3=N2)c2ccccc21,inactive: 0.5%
3,CCc1cc(C(=O)O)c(NC(=O)C(c2ccccc2)c2ccccc2)s1,inactive: 3.3%
4,NS(=O)(=O)c1cccc(NC(=O)CSc2ccccn2)c1,inactive: -0.3%
5,O=S(=O)(c1cccc2cccnc12)N1CCN(Cc2ccc3c(c2)OCO3)CC1,inactive: -0.3%
6,Cc1ccc(N2C(=O)c3ccccc3C2(O)c2ncc[nH]2)cc1 (centres undefined),inactive: 2.1%
7,O=C(Nc1ccc2c(c1)OCO2)C1CCN(Cc2cnn(-c3ccccc3)c2-n2cccc2)CC1,inactive: 0.4%
8,COP(C)(=O)c1c(C)nn(-c2ccccc2)c1C (centres undefined),inactive: -2.1%
9,COc1ccc(N2C(=O)CC(NCc3cccc(F)c3)C2=O)cc1 (centres undefined),inactive: 1.4%
10,O=C(NCc1nc2ccccc2[nH]1)c1cc2ccccc2oc1=O,inactive: 6.1%
11,O=C(CNC(=O)/C(=C\c1ccccc1)NC(=O)c1ccc(Br)cc1)OCc1ccccc1,inactive: -2.8%
12,CCOC(=O)NCc1ccc(CNC(=O)OCC)cc1,inactive: 5.6%
13,CN(CC(=O)N1CCN(c2ccccn2)CC1)S(=O)(=O)c1ccc(Br)cc1,inactive: 3.5%
14,O=C1CC(SCCc2nc3ccccc3[nH]2)C(=O)N1c1ccc(F)c(Cl)c1 (centres undefined),inactive: -1.1%
15,N#Cc1c(F)cccc1N1CCOCC1,inactive: 1.2%
16,CC(=NCC1CCCO1)c1c(O)[nH]c(=O)[nH]c1=O (centres undefined),inactive: -0.2%
17,O=C(CN1C(=O)CC(c2ccccc2)=Nc2ccccc21)NCc1ccccc1,inactive: 1.9%
18,CCn1c(SCC(=O)Nc2sc3c(c2C(N)=O)CCC(C)C3)nnc1-c1ccco1 (centres undefined),inactive: 0.6%
19,Cc1cc(OCC(=O)Nc2ccncc2)ccc1Br,inactive: -0.6%
20,CCCSC1=N/C(=C\c2ccsc2)C(=O)S1,inactive: 3.4%
21,CCCNC(=O)c1ccccc1NC(=O)c1ccccc1N(C)S(=O)(=O)c1ccc(C)cc1,inactive: 2%
22,CCOC(=O)c1[nH]c(C)c(/C(O)=C2\C(=O)C(=O)N(CCN(C)C)C2c2ccncc2)c1C (centres undefined),inactive: 4%
23,O=C(O)CCCCCNC(=O)Nc1ccc2c(c1)OCCO2,inactive: -3.4%
24,CN1C(=O)c2cccc3c(S(=O)(=O)NCc4ccco4)ccc1c23,inactive: -2.4%
25,CC(C)COc1ccc(Cc2cnc(N)nc2N)cc1,inactive: 2%

row,Structure (SMILES),inhibition
1,C(=C\c1ccccc1)/CSc1nnc(-c2ccncc2)n1Cc1ccco1,inactive: 4.6%
2,CSCC[C@H](Nc1ncnc2sc(C)c(C)c12)C(=O)O,inactive: -2.3%
3,C(#CCN1CCOCC1)COC(c1ccccc1)c1ccccc1,inactive: 0.6%
4,COc1ccc(CCNC(=O)c2ccccc2NC(=O)c2ccco2)cc1OC,inactive: -1.7%
5,O=[N+]([O-])c1cn(Cc2ccc(Cl)cc2)cn1,inactive: 4.5%
6,O=C1CSC(=S)N1Cc1cccnc1,inactive: -1.3%
7,Cc1cc(C(=O)CSc2ccc(F)cc2)cc(C)c1OC(=S)N(C)C,inactive: -0.8%
8,O=C(CN1CCN(c2cccc(C(F)(F)F)c2)CC1)Nc1cccc(C(F)(F)F)c1,inactive: -3.2%
9,N/C(=N\OC(=O)c1cccc(Br)c1)c1ccc(Br)cc1,active: 57.6%
10,O=C(c1n[nH]c(=O)c2ccccc12)N1CCOCC1,inactive: 3%
11,COC(=O)c1cccc(NC(=O)c2ccco2)c1,inactive: -2.7%
12,Cc1ccccc1C1CC(c2ccccc2OC(F)F)Nc2ncnn21 (centres undefined),inactive: -2.3%
13,CCCS(=O)(=O)c1snnc1C,inactive: 2%
14,CN(CC(=O)NC(c1ccccc1)c1ccccc1)Cc1nc2ccccc2c(=O)[nH]1,inactive: -1.3%
15,C(=N\n1cnnc1)/c1ccccc1OCCOc1ccccc1,inactive: 8.7%
16,Cc1c(Cl)cccc1-n1c(SCC(=O)NCc2cccs2)nnc1-c1ccncc1,inactive: 0.3%
17,CC(C)c1noc2ncc(C(=O)c3cc(Cl)cc(Cl)c3O)cc12,inactive: -2.7%
18,CC(C)=CCCC(C)N(C=O)C(C)CCC=C(C)C (centres undefined),inactive: -4.5%
19,CCOC(=O)c1nn(-c2ccc(F)cc2)c(C)c1C(C)=O,inactive: 3.8%
20,CCCCSc1nnc2n(CCc3ccccc3)c(=O)c3c4c(sc3n12)COC(C)(C)C4,inactive: -1%
21,COc1ccc(CC(=O)NCc2cn3ccsc3n2)cc1,inactive: -1.3%
22,O=C(CC1Nc2ccccc2NC1=O)NCCCN1CCCCCC1 (centres undefined),inactive: -1.3%
23,CCCc1nc2ccccc2c(=O)n1/N=C/c1ccccc1O,inactive: -1.9%
24,O=C(/C=C/NNC(=O)c1ccccc1)c1ccc(Br)cc1,inactive: -1.9%

# Entries shown so far that contain a nitro group on carbon (4):
row,Structure (SMILES),inhibition
25,Cn1cnnc1Sc1cc(N2CCN(S(=O)(=O)c3ccc(Cl)c(Cl)c3)CC2)ccc1[N+](=O)[O-],inactive: 0.3%
7,Cc1ccc(C(=O)N/C(=C/c2ccc(-c3cccc([N+](=O)[O-])c3)o2)C(=O)NC(C)C)cc1,inactive: -2.7%
22,CCOC(=O)C(C)On1c(-c2cccc(Cl)c2)nc2ccc([N+](=O)[O-])cc21 (centres undefined),inactive: 0.8%
5,O=[N+]([O-])c1cn(Cc2ccc(Cl)cc2)cn1,inactive: 4.5%
